Measurements reported in PubChem BioAssay AID743121 (NCATS, 2013).
The deposit covers about 26,000 reagents; below is a random part of them. In the full data, 167 (0.63%) are marked active. 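Calls are per gene from RSA p-values that are not deposited; an individual active-marked siRNA can sensitise only weakly.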 Reagents against one gene are numbered here. Not all columns of the deposit are shown.

Aim: 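Genes whose silencing strengthens cell killing by camptothecin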 (primary screen)
System: MDA-MB-231 cells, a human breast cancer line
Knock-down reagent: single siRNA against human genes, 20 nM siRNA (0.8 pmol per well)
Duration: 120 h (drug added 48 h after transfection, read 72 h later)
Treatment: camptothecin 20 nM (about EC30) for 72 h; vehicle 0.1% DMSO in parallel plates
Measurement: 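Cell viability by ATP luminescence (CellTiter-Glo) as % of non-targeting siRNA wells, and the log2 ratio of viability without drug over viability with camptothecin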
Scale: log2 vehicle/camptothecin viability: higher = stronger sensitisation to camptothecin; viability with camptothecin: higher = more viable cells
Call rule: 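Active genes have an RSA gene-level p-value below 0.001, computed from the ratios of their separate siRNAs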

| gene knocked down | reagent no. | log2 vehicle/camptothecin viability | viability with camptothecin (% of control) | Call |
| --- | --- | --- | --- | --- |
| LHX9 | 1 | -0.142 | 86.9 | inactive |
| LHX9 | 2 | -0.622 | 65.4 | inactive |
| LHX9 | 3 | 0.016 | 99.8 | inactive |
| LHX9 | 4 | 0.133 | 95.9 | inactive |
| MAP4K5 | 1 | -0.139 | 68.9 | inactive |
| MAP4K5 | 2 | -0.122 | 117 | inactive |
| MAP4K5 | 3 | -0.233 | 93.4 | inactive |
| MAP4K5 | 4 | -0.524 | 72.1 | inactive |
| CACNA1D | 1 | -0.16 | 65.3 | inactive |
| CACNA1D | 2 | -0.132 | 71 | inactive |
| CACNA1D | 3 | -0.498 | 113 | inactive |
| CACNA1D | 4 | 0.213 | 72.3 | inactive |
| HEPACAM | 1 | -0.364 | 119 | inactive |
| HEPACAM | 2 | 0.148 | 71.4 | inactive |
| HEPACAM | 3 | -0.132 | 81.4 | inactive |
| HEPACAM | 4 | -0.129 | 90.1 | inactive |
| DLK2 | 1 | -0.219 | 113 | inactive |
| DLK2 | 2 | -0.331 | 72.3 | inactive |
| DLK2 | 3 | -0.0106 | 72.3 | inactive |
| DLK2 | 4 | 0.175 | 55.9 | inactive |
| AVPR1B | 1 | -0.0758 | 107 | inactive |
| AVPR1B | 2 | -0.512 | 66.7 | inactive |
| AVPR1B | 3 | -0.173 | 29.1 | inactive |
| AVPR1B | 4 | -0.255 | 43.7 | inactive |
| WARS1 | 1 | -0.0192 | 94.2 | inactive |
| WARS1 | 2 | 0.0201 | 96.2 | inactive |
| WARS1 | 3 | -0.465 | 56.5 | inactive |
| WARS1 | 4 | -0.509 | 74.3 | inactive |
| WNT5A | 1 | 0.359 | 69.3 | inactive |
| WNT5A | 2 | -0.284 | 113 | inactive |
| WNT5A | 3 | -0.391 | 88.3 | inactive |
| NR0B2 | 1 | 0.0467 | 99.5 | inactive |
| NR0B2 | 2 | -0.289 | 115 | inactive |
| NR0B2 | 3 | 0.0595 | 50.6 | inactive |
| NR0B2 | 4 | -0.521 | 110 | inactive |
| BAGE5 | 1 | -0.0473 | 85.3 | inactive |
| BAGE5 | 2 | -0.339 | 61.2 | inactive |
| BID | 1 | -0.103 | 109 | inactive |
| BID | 2 | -0.0688 | 18.3 | inactive |
| BID | 3 | -0.128 | 90.1 | inactive |
| BID | 4 | 0.0689 | 93.8 | inactive |
| AQP7 | 1 | 0.101 | 109 | inactive |
| AQP7 | 2 | -0.0927 | 95.9 | inactive |
| AQP7 | 3 | -0.106 | 48.9 | inactive |
| AQP7 | 4 | -0.0911 | 83.7 | inactive |
| ADSL | 1 | -0.745 | 92.1 | inactive |
| ADSL | 2 | 0.525 | 22.8 | inactive |
| ADSL | 3 | -0.717 | 99.4 | inactive |
| MAP4K4 | 1 | -0.07 | 46.7 | inactive |
| MAP4K4 | 2 | -0.32 | 117 | inactive |
| MAP4K4 | 3 | 0.169 | 49.9 | inactive |
| MAP4K4 | 4 | -0.202 | 80.8 | inactive |
| AAK1 | 1 | -0.381 | 64.7 | inactive |
| AAK1 | 2 | -0.309 | 112 | inactive |
| AAK1 | 3 | -0.177 | 75.5 | inactive |
| AAK1 | 4 | -0.598 | 123 | inactive |
| MLKL | 1 | -0.0324 | 99.2 | inactive |
| MLKL | 2 | -0.328 | 91.6 | inactive |
| MLKL | 3 | -0.14 | 102 | inactive |
| MLKL | 4 | 0.0117 | 53.5 | inactive |
| MLKL | 5 | -0.0233 | 109 | inactive |
| MLKL | 6 | -0.225 | 108 | inactive |
| MLKL | 7 | -0.035 | 88.6 | inactive |
| GPHN | 1 | -0.225 | 92.3 | inactive |
| GPHN | 2 | 0.209 | 79.3 | inactive |
| GPHN | 3 | -0.0273 | 89.4 | inactive |
| GPHN | 4 | -0.195 | 107 | inactive |
| IHH | 1 | -0.00166 | 96.1 | inactive |
| IHH | 2 | -0.125 | 25.2 | inactive |
| IHH | 3 | -0.243 | 84.9 | inactive |
| IHH | 4 | -0.0443 | 85.4 | inactive |
| ADGRF3 | 1 | -0.0778 | 117 | inactive |
| ADGRF3 | 2 | -0.386 | 104 | inactive |
| ADGRF3 | 3 | -0.34 | 97.1 | inactive |
| ADGRF3 | 4 | -0.0349 | 71.1 | inactive |
| CAPN11 | 1 | -0.0164 | 43 | inactive |
| CAPN11 | 2 | -0.297 | 21.6 | inactive |
| CAPN11 | 3 | -0.00747 | 54 | inactive |
| CAPN11 | 4 | -0.267 | 103 | inactive |
| IFNA8 | 1 | 0.249 | 109 | inactive |
| IFNA8 | 2 | -0.69 | 101 | inactive |
| IFNA8 | 3 | 0.162 | 45 | inactive |
| IFNA8 | 4 | -0.256 | 101 | inactive |
| DTX1 | 1 | -0.112 | 46.7 | inactive |
| DTX1 | 2 | -0.271 | 36.8 | inactive |
| DTX1 | 3 | -0.708 | 18 | inactive |
| DTX1 | 4 | -0.126 | 97.2 | inactive |

Not a retest: entries from further up.
| gene knocked down | reagent no. | log2 vehicle/camptothecin viability | viability with camptothecin (% of control) | Call |
| --- | --- | --- | --- | --- |
| CACNA1D | 4 | 0.213 | 72.3 | inactive |
| HEPACAM | 1 | -0.364 | 119 | inactive |
| HEPACAM | 2 | 0.148 | 71.4 | inactive |
| HEPACAM | 3 | -0.132 | 81.4 | inactive |
